Experimental data taken from article PMC5799372, “A NIN-LIKE PROTEIN mediates nitrate-induced control of root nodule symbiosis in Lotus japonicus”.
A weaker result is weaker than the reference pair of the same experiment. Protein sequences can lack the tags named with them. For part of these data: The exact form of at least one protein or probe is not confirmed.

Key:
NRSYM1(531-976)-myc = target: T1, NRSYM1(531-976)-myc (UniProt A0A2Z5V8A6); assay: competition with a labelled probe; details: unlabeled competitor 20x/100x vs CLE-RS2-1 probe, 20 mM HEPES-KOH pH 7.9, 50 mM KCl, 1 mM DTT, 4% glycerol, 0.1% Triton X-100, 10 ul, 30 min room temperature, 15% PAGE, protein translated in vitro, label: biotin (probe), unlabeled as competitor
T1 sequence (looked up, limits assumed): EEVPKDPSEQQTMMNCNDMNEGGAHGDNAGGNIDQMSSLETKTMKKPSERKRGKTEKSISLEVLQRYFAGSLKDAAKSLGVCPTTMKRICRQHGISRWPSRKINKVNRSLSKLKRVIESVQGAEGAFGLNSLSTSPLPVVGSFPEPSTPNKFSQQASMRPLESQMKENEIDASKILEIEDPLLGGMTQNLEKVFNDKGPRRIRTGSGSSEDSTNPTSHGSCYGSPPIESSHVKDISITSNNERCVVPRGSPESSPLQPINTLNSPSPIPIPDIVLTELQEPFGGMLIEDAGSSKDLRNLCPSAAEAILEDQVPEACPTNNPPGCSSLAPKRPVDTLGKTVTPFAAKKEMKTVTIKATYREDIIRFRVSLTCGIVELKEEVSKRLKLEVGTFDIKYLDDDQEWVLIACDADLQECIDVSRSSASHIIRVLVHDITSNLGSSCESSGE

[1] = target: T2, NIN(520-878)-myc (Lotus japonicus) (UniProt Q9S7B1); assay: EMSA; details: shift only at greatest protein amount, lower affinity than NRSYM1 at equal amounts; 20 mM HEPES-KOH pH 7.9, 50 mM KCl, 1 mM DTT, 4% glycerol, 0.1% Triton X-100, 10 ul, 30 min room temperature; 15% PAGE; protein translated in vitro; residues 520-878; protein details: myc; label: biotin (probe), unlabeled as competitor
T2 sequence (looked up): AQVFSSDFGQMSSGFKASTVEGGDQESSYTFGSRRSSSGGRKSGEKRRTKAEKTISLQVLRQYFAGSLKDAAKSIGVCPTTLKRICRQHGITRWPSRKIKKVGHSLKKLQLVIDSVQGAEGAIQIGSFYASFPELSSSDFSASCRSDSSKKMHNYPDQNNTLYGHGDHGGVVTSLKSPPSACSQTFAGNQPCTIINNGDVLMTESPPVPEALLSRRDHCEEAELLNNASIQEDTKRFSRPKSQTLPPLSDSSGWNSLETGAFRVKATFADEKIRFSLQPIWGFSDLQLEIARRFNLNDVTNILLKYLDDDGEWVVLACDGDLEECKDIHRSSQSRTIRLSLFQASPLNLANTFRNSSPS

“GGTGATATATTCATGATCTTTAATTCACTTGAAGAGTTAGTGATTGAT / GGTGATCAATCACTAACTCTTCAAGTGAATTAAAGATCATGAATATAT [CLE-RS2-4]”: binds more weakly (NRSYM1(531-976)-myc; hardly inhibited).

“GGTGGTATCAAACTGACCCCTAGTTTCAGTCCAAAGCCACCTTGATTG / GGTGCAATCAAGGTGGCTTTGGACTGAAACTAGGGGTCAGTTTGATAC [CLE-RS2-3]”: binds more weakly (NRSYM1(531-976)-myc; weaker than self).

“GGTGTGTGAGTTCTGACCCTTAAGCCTTGGAAAGGACAGTCATGCAA / GGTGTTGCATGACTGTCCTTTCCAAGGCTTAAGGGTCAGAACTCACA [CLE-RS2-1]”: binds more weakly [1].
